Measured values as given in article PMC3254608, “Inscuteable Regulates the Pins-Mud Spindle Orientation Pathway” (PLoS ONE, 2012).
Results are given in words; binding and its absence hold for the method and conditions named. For part of these data: Binding seen in cells or lysates may run through a third protein. Some binding calls cover weakened binding; strength is not graded here. For part of these data: Sequences can lack the tags named with a protein.

Legend:
[1] = biological target: T1, Partner of Inscuteable (Pins), endogenous (Drosophila (endogenous in L3 larval brains)) (UniProt Q9VB22); test: co-IP; endogenous proteins from wild-type L3 larval brain extracts; antibodies on protein G sepharose; 50 mM HEPES pH 7.5/150 mM NaCl/1 mM DTT/0.1% Triton X-100; western blot
T1 sequence: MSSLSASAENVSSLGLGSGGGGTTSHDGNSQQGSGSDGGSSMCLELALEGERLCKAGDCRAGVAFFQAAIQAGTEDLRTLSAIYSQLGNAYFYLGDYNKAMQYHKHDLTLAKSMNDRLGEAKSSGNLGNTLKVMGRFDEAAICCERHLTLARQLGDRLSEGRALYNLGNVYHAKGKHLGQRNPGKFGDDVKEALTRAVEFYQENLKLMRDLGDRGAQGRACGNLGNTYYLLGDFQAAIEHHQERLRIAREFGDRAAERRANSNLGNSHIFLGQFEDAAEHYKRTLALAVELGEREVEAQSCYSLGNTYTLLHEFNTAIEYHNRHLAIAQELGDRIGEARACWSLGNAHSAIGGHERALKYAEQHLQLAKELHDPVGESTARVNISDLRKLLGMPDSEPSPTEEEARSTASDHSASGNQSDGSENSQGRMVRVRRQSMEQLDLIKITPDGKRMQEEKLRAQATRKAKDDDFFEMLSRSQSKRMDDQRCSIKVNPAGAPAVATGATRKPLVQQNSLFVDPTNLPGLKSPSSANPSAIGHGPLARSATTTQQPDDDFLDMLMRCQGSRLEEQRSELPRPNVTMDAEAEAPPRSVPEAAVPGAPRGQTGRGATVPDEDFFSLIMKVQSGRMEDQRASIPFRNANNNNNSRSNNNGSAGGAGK

[2] = biological target: T2, Inscuteable (Insc), endogenous (Drosophila (endogenous in L3 larval brains)) (UniProt Q24367); test: as above
T2 sequence: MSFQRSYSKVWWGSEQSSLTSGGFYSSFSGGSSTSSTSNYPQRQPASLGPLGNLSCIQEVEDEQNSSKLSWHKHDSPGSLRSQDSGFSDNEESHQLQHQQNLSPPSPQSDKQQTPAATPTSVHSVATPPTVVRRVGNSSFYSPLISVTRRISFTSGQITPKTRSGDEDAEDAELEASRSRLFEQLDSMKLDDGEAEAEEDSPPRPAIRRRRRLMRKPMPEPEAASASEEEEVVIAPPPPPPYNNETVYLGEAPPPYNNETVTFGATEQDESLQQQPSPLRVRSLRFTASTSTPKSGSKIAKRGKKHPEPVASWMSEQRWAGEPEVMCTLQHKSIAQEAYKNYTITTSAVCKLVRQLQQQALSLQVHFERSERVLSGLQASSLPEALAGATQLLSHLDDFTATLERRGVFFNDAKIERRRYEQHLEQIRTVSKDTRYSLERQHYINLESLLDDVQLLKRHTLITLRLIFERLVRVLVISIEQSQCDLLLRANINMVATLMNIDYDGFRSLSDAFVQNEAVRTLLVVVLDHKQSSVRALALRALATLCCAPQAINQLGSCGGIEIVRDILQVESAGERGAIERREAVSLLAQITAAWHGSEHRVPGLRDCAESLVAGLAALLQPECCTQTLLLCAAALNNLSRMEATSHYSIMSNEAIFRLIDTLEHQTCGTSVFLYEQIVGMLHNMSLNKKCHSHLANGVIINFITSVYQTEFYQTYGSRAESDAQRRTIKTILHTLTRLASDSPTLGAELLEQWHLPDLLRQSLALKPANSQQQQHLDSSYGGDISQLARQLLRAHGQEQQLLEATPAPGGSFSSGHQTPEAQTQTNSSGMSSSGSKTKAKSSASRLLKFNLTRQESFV

[3] = biological target: T3, GST-fusion of the Pins GoLoco region (residues 372-658) (Drosophila) (UniProt Q9VB22); test: pull-down; GST-Pins constructs adsorbed on glutathione agarose, purified MBP-Insc added; 10 mM Hepes/100 mM NaCl/1 mM DTT, 50 µl, room temperature, 15 min; gel electrophoresis; both purified
T3 sequence: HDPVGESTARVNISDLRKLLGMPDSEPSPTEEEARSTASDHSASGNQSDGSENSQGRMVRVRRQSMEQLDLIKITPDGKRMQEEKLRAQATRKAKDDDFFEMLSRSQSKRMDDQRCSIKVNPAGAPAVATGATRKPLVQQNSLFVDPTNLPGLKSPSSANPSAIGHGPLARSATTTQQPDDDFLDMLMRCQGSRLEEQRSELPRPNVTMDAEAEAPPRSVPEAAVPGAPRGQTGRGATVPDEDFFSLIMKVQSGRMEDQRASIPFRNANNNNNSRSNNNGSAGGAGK

B1: Inscuteable (Insc), endogenous (protein, UniProt Q24367 1-859)
chain: MSFQRSYSKVWWGSEQSSLTSGGFYSSFSGGSSTSSTSNYPQRQPASLGPLGNLSCIQEVEDEQNSSKLSWHKHDSPGSLRSQDSGFSDNEESHQLQHQQNLSPPSPQSDKQQTPAATPTSVHSVATPPTVVRRVGNSSFYSPLISVTRRISFTSGQITPKTRSGDEDAEDAELEASRSRLFEQLDSMKLDDGEAEAEEDSPPRPAIRRRRRLMRKPMPEPEAASASEEEEVVIAPPPPPPYNNETVYLGEAPPPYNNETVTFGATEQDESLQQQPSPLRVRSLRFTASTSTPKSGSKIAKRGKKHPEPVASWMSEQRWAGEPEVMCTLQHKSIAQEAYKNYTITTSAVCKLVRQLQQQALSLQVHFERSERVLSGLQASSLPEALAGATQLLSHLDDFTATLERRGVFFNDAKIERRRYEQHLEQIRTVSKDTRYSLERQHYINLESLLDDVQLLKRHTLITLRLIFERLVRVLVISIEQSQCDLLLRANINMVATLMNIDYDGFRSLSDAFVQNEAVRTLLVVVLDHKQSSVRALALRALATLCCAPQAINQLGSCGGIEIVRDILQVESAGERGAIERREAVSLLAQITAAWHGSEHRVPGLRDCAESLVAGLAALLQPECCTQTLLLCAAALNNLSRMEATSHYSIMSNEAIFRLIDTLEHQTCGTSVFLYEQIVGMLHNMSLNKKCHSHLANGVIINFITSVYQTEFYQTYGSRAESDAQRRTIKTILHTLTRLASDSPTLGAELLEQWHLPDLLRQSLALKPANSQQQQHLDSSYGGDISQLARQLLRAHGQEQQLLEATPAPGGSFSSGHQTPEAQTQTNSSGMSSSGSKTKAKSSASRLLKFNLTRQESFV
- binding [1]: binds

B2: Partner of Inscuteable (Pins), endogenous (protein, UniProt Q9VB22 1-658)
chain: MSSLSASAENVSSLGLGSGGGGTTSHDGNSQQGSGSDGGSSMCLELALEGERLCKAGDCRAGVAFFQAAIQAGTEDLRTLSAIYSQLGNAYFYLGDYNKAMQYHKHDLTLAKSMNDRLGEAKSSGNLGNTLKVMGRFDEAAICCERHLTLARQLGDRLSEGRALYNLGNVYHAKGKHLGQRNPGKFGDDVKEALTRAVEFYQENLKLMRDLGDRGAQGRACGNLGNTYYLLGDFQAAIEHHQERLRIAREFGDRAAERRANSNLGNSHIFLGQFEDAAEHYKRTLALAVELGEREVEAQSCYSLGNTYTLLHEFNTAIEYHNRHLAIAQELGDRIGEARACWSLGNAHSAIGGHERALKYAEQHLQLAKELHDPVGESTARVNISDLRKLLGMPDSEPSPTEEEARSTASDHSASGNQSDGSENSQGRMVRVRRQSMEQLDLIKITPDGKRMQEEKLRAQATRKAKDDDFFEMLSRSQSKRMDDQRCSIKVNPAGAPAVATGATRKPLVQQNSLFVDPTNLPGLKSPSSANPSAIGHGPLARSATTTQQPDDDFLDMLMRCQGSRLEEQRSELPRPNVTMDAEAEAPPRSVPEAAVPGAPRGQTGRGATVPDEDFFSLIMKVQSGRMEDQRASIPFRNANNNNNSRSNNNGSAGGAGK
- binding [2]: binds

B3: MBP-fusion of the central Ankyrin-repeat containing domain of Inscuteable (residues 252-600) (domain or fragment, Drosophila, UniProt Q24367 252-600, looked up)
chain: APPPYNNETVTFGATEQDESLQQQPSPLRVRSLRFTASTSTPKSGSKIAKRGKKHPEPVASWMSEQRWAGEPEVMCTLQHKSIAQEAYKNYTITTSAVCKLVRQLQQQALSLQVHFERSERVLSGLQASSLPEALAGATQLLSHLDDFTATLERRGVFFNDAKIERRRYEQHLEQIRTVSKDTRYSLERQHYINLESLLDDVQLLKRHTLITLRLIFERLVRVLVISIEQSQCDLLLRANINMVATLMNIDYDGFRSLSDAFVQNEAVRTLLVVVLDHKQSSVRALALRALATLCCAPQAINQLGSCGGIEIVRDILQVESAGERGAIERREAVSLLAQITAAWHGSEH
notes: Inscuteable (Insc), Drosophila, residues 252-600, including the central Ankyrin-repeat containing region; pMAL-c2 based vector; also called MBP-Insc; source: E. coli BL21(DE3), purified (amylose resin)
- binding [3]: no binding
